According to US11952554B2, “Alkyl polyglycoside-containing cleaning formulations for chemically sensitive individuals” (Living Clean NZ, Ltd., priority 2021, dated 2024):

Assay: Percent Modern Carbon (pMC), estimated from feedstocks or determined by ASTM D6866-05
Type: physicochemical
[1] = surfactant raw materials, Table 3

| Compound | Percent Modern Carbon (pMC) [1] | Percent Modern Carbon (pMC) (surfactant feedstock chain length study, Table 5) | pMC value (ethanol derived from plant sources (fermentation)) | pMC value (ethanol made from petrochemical processes, expected) |
| --- | --- | --- | --- | --- |
| CCCCCCCCCCCCOS(=O)(=O)[O-].[Na+] [Sodium lauryl sulfate] | 0% |  |  |  |
| CCCCCCCCOS(=O)(=O)[O-].[Na+] [Sodium octyl sulfate (from bio-basis), Sodium octyl sulfate] | 100% | 100% |  |  |
| CCO [ethanol] |  |  | 100% | 0% |
